Assay results taken from the M2OR odorant receptor database.
Residue numbers refer to the chain shown, from its start. The list shows a part of the results, in another mix than the full data. Calls are pooled over several reports, among them a noisy single-well screen. The list shows a part of the results.

Chains of the proteins cited; added tags and fusions are not shown. A line that says so, or that is headed by a name, gives the form on record, which may keep a tag or linker.
OR2G2, as listed by the source: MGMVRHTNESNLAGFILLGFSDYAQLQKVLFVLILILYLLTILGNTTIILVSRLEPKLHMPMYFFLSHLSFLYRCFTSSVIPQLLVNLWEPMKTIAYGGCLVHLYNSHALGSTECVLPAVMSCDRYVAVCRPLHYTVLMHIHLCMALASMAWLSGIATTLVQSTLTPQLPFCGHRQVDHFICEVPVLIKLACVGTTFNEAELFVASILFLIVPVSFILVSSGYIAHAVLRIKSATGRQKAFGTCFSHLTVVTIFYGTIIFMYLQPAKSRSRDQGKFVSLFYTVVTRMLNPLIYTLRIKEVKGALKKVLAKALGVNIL
OR2J2, as listed by the source: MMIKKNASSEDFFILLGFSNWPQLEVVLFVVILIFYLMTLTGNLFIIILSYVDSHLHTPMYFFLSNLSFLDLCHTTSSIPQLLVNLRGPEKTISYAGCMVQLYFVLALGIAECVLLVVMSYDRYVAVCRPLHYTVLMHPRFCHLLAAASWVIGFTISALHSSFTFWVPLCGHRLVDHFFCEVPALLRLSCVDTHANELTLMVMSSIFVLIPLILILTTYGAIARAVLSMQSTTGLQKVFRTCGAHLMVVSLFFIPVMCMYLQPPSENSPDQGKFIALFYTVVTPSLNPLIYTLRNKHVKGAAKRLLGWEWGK

Assays:
Settings in all cases: stereoisomer not certain
[1] = system: T1, OR2F2
T1 sequence (whole entry): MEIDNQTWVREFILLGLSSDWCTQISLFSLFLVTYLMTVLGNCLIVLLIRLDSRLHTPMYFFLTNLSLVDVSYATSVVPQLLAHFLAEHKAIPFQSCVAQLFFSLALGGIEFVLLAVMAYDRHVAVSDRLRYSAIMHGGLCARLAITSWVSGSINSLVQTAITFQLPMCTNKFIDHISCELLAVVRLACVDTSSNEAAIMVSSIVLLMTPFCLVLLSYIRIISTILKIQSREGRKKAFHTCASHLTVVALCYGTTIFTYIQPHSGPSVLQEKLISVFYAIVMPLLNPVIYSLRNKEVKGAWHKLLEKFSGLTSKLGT
Outline: (§1)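 Assay methods differ from source to source, frequently being transient luciferase assays in mammalian cell lines. For each receptor–molecule pair, the label responsive (active) applies when the original authors judged the measured signal statistically different from baseline, and non-responsive (inactive) applies otherwise.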

[2] = molecular target: T2, OR2G2 (Homo sapiens) (UniProt Q8NGZ5)
T2 sequence (whole entry): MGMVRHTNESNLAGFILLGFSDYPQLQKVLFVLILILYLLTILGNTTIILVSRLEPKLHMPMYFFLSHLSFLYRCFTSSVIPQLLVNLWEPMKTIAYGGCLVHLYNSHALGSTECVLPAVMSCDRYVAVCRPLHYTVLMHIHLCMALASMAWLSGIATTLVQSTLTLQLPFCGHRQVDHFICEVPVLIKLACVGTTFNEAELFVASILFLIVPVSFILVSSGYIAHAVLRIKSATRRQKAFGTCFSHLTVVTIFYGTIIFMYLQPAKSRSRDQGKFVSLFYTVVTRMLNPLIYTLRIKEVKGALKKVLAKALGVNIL
Outline: as §1

[3] = system: T3, OR2G2
T3 sequence (whole entry): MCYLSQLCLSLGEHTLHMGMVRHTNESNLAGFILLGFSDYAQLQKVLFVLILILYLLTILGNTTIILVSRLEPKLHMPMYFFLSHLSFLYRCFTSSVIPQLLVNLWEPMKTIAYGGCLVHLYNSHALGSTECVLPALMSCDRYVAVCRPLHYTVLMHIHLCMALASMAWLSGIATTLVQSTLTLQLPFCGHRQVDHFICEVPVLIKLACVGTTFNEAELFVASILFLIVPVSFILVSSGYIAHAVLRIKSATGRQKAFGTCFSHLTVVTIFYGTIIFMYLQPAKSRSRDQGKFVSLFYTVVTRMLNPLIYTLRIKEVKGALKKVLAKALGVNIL
Outline: as §1

[4] = system: T4, OR2G2; remark: listed apart in the source
T4 sequence (whole entry): T2 sequence (whole entry) with P24A, L167P, R236G
Outline: as §1

[5] = molecular target: T5, OR2G3 (Homo sapiens) (UniProt Q8NGZ4)
T5 sequence (whole entry): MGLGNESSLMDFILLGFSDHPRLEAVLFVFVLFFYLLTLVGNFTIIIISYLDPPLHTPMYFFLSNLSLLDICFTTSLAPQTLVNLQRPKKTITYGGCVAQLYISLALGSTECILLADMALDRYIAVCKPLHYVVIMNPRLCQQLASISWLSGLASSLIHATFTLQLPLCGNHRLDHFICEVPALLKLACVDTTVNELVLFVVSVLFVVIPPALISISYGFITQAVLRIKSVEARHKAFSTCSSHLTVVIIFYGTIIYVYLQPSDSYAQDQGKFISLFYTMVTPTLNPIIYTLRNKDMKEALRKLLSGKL
Outline: as §1

[6] = system: T6, OR2G3
T6 sequence (whole entry): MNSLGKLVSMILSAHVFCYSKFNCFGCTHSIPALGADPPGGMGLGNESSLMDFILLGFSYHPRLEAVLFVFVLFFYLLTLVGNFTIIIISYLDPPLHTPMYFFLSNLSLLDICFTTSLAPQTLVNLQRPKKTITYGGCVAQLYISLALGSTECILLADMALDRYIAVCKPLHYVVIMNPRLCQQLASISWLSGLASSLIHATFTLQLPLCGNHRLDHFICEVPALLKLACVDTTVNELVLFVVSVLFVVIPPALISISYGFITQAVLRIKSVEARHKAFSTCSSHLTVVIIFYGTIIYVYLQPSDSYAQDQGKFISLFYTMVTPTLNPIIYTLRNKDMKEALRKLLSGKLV
Outline: as §1

[7] = molecular target: T7, OR2G6 (Homo sapiens) (UniProt Q5TZ20)
T7 sequence (whole entry): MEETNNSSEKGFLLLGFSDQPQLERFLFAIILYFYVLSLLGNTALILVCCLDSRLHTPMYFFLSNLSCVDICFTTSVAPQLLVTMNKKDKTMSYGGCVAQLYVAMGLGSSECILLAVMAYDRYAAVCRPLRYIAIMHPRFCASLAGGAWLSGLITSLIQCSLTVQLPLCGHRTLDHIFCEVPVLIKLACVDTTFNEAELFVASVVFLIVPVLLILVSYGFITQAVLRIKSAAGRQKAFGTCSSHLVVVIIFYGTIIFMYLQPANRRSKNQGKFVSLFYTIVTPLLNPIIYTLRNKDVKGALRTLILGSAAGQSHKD
Outline: as §1

[8] = molecular target: T8, OR2H1 (Homo sapiens) (UniProt Q9GZK4)
T8 sequence (whole entry): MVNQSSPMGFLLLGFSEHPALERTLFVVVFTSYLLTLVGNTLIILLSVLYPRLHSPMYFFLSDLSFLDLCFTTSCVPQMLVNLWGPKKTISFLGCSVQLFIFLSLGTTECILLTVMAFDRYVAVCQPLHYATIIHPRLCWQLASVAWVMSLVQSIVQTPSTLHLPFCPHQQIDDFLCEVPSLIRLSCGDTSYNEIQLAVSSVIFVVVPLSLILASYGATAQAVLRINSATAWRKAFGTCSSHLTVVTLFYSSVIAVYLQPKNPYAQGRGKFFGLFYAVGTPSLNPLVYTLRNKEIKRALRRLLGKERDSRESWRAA
Outline: as §1

[9] = system: T9, OR2H2
T9 sequence (whole entry): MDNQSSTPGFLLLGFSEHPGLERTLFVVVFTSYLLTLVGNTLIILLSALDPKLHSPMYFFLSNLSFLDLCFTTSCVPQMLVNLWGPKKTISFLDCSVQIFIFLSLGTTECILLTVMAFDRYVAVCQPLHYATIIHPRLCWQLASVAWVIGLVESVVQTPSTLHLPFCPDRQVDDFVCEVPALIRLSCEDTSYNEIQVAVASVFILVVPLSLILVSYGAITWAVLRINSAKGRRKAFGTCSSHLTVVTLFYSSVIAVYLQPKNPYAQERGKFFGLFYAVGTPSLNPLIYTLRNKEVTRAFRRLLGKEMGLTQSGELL
Outline: as §1

[10] = system: T10, OR2H2; remark: listed apart in the source
T10 sequence (whole entry): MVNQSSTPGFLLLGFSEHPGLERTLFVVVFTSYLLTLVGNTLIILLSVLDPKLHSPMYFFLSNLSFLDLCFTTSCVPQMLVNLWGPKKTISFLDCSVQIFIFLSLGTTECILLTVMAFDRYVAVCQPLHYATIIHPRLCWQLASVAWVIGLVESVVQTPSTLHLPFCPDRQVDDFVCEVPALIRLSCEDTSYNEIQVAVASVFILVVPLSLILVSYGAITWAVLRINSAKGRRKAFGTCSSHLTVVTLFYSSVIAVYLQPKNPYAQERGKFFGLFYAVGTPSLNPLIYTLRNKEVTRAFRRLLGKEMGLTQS
Outline: as §1

[11] = system: T11, OR2J1
T11 sequence (whole entry): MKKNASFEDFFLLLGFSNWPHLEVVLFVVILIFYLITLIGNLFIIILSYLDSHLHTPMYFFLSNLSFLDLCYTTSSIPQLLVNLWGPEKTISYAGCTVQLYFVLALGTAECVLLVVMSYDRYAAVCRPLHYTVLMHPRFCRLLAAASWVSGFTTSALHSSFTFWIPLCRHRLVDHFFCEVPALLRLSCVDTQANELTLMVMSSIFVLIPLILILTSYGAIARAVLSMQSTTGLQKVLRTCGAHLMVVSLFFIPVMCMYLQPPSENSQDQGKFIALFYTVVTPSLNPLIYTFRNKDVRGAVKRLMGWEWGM
Outline: as §1

[12] = molecular target: T12, OR2J2 (Homo sapiens) (UniProt O76002)
T12 sequence (whole entry): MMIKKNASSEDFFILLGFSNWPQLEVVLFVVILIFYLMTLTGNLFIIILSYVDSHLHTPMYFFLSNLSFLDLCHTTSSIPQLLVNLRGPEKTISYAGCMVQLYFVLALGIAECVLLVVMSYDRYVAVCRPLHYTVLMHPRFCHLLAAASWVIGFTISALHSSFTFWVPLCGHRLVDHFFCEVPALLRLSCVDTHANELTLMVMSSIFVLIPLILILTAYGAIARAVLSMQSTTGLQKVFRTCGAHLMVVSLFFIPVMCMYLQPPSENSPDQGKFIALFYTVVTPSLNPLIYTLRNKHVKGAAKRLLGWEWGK
Outline: as §1

[13] = system: T13, OR2J2
T13 sequence (whole entry): T12 sequence (whole entry) with A218T
Outline: as §1

[14] = system: T14, OR2J2; remark: listed apart in the source
T14 sequence (whole entry): T12 sequence (whole entry) with H74Y, A146V, A218T
Outline: as §1

[15] = system: T15, OR2J2; remark: listed apart in the source
T15 sequence (whole entry): T12 sequence (whole entry) with H74Y, A111T, A146V
Outline: as §1

[16] = molecular target: T16, OR2J3 (Homo sapiens) (UniProt O76001)
T16 sequence (whole entry): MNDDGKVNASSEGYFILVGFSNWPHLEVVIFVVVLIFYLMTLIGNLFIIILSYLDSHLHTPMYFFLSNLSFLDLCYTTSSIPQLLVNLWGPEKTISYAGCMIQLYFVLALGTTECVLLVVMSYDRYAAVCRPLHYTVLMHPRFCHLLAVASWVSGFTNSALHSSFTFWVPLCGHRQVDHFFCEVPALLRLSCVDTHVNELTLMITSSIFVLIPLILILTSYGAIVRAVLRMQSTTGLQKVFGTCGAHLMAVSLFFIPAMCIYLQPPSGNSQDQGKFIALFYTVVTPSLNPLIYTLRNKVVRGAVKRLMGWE
Outline: as §1

| Structure (SMILES) | odorant receptor agonist call [1] | odorant receptor agonist call [2] | odorant receptor agonist call [3] | odorant receptor agonist call [4] | odorant receptor agonist call [5] | odorant receptor agonist call [6] | odorant receptor agonist call [7] | odorant receptor agonist call [8] | odorant receptor agonist call [9] | odorant receptor agonist call [10] | odorant receptor agonist call [11] | odorant receptor agonist call [12] | odorant receptor agonist call [13] | odorant receptor agonist call [14] | odorant receptor agonist call [15] | odorant receptor agonist call [16] |
| --- | --- | --- | --- | --- | --- | --- | --- | --- | --- | --- | --- | --- | --- | --- | --- | --- |
| CC(=O)OC(C)(C)C1CC=C(C)CC1 (stereo not drawn) | inactive | inactive | inactive | inactive | inactive | inactive | inactive | inactive | inactive | inactive | inactive | inactive | inactive | inactive | inactive | inactive |
| O=C1CCCCCCCCCCCCCCO1 | inactive | inactive | inactive | inactive | inactive | inactive | inactive | inactive | inactive | inactive | inactive | inactive | inactive | inactive | inactive | active |
| CC(C)CCC(=O)O | inactive | – | inactive | inactive | inactive | inactive | inactive | inactive | inactive | inactive | inactive | active | inactive | inactive | inactive | inactive |
| C=C(C)C1CCC2=CC(=O)CC(C)C2(C)C1 (stereo not drawn) | – | – | – | – | – | – | – | – | – | – | – | – | – | – | – | inactive |
| CC(C)(C)c1ccc(CCC=O)cc1 | inactive | – | inactive | inactive | inactive | inactive | inactive | inactive | inactive | inactive | inactive | inactive | inactive | inactive | inactive | inactive |
| c1ccc(Oc2ccccc2)cc1 | inactive | – | inactive | inactive | inactive | inactive | inactive | inactive | inactive | inactive | inactive | inactive | inactive | inactive | inactive | active |
| O=CCc1ccccc1 | inactive | – | inactive | inactive | inactive | inactive | inactive | inactive | inactive | inactive | inactive | active | active | active | active | active |
